Some of the results follow. The main result of the screen is listed elsewhere. These columns were measured beside it and carry no call. Compounds called inactive in the main read-out are mostly missing here. Words in brackets tell the shape of the fitted curve; partial curves, single points and poor fits give uncertain potencies.
Assay: qHTS Assay to Find Inhibitors of Chronic Active B-Cell Receptor Signaling
Conditions: ABC-DLBCL IkBa-CBG/CBR reporter, luminescence ratio (green luciferase fused to IkBa over red control in TMD8 lymphoma cells), 4 h
Procedure, shortened: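 Concentration-response series (up to 46 uM) were applied to TMD8 dual-reporter cells for 4 h at 37C with doxycycline. Green/red ratio, after filter-overlap correction, defined %Activity; red signal alone was normalised to basal cells and zero luminescence.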

[1] = measured here: CBR red luminescence, cell number
[2] = measured here: IkBa-CBG green luminescence

In the case of `COc1cc(C2NC(=O)NC(C)=C2C(=O)OCc2ccc(C)cc2)cc(OC)c1O` (configuration not stated), the AC50 [1] is reported as 0.794 µM [rising, full curve, poor fit] and the AC50 [2] is reported as 12.6 µM [falling, partial curve, poor fit].
In the case of `Cc1ccc(CNC(=O)CCS(=O)(=O)c2ccc(Br)s2)cc1`, the AC50 [1] is reported as 16.4 µM [rising, single point].
In the case of `COc1ccc(-c2ccc(SCC(=O)c3cccs3)nn2)cc1`, the AC50 [1] is reported as 35.5 µM [falling, single point].
In the case of `COc1cc2c(cc1OC)CN(c1ccc(F)cc1[N+](=O)[O-])CC2`, the AC50 [1] is reported as 5.62 µM [rising, partial curve, poor fit].
For `C[C@H](CO)N1C[C@H](C)[C@@H](CN(C)Cc2ccccc2)Oc2c(NS(=O)(=O)c3cn(C)cn3)cccc2C1=O`, the AC50 [1] was 4.11 µM [falling, partial curve, poor fit].
For `CCOC(=O)/C=C1\SCC(=O)N1Cc1nnc(-c2ccccc2Br)o1`, the AC50 [1] was 6.51 µM [falling, partial curve].
In the case of `CCn1ncc(Br)c1C(=O)Nc1sc2c(c1C(N)=O)CCC2`, the AC50 [1] is reported as 0.562 µM [falling, partial curve, poor fit].
For `O=C(CNC(=O)c1cnccc1C(F)(F)F)c1cccc(Cl)c1`, the AC50 [1] was 7.08 µM [falling, partial curve, poor fit].
In the case of `COc1ccc(N2CSC3=C(C#N)C(c4cccc(OC)c4OC)CC(=O)N3C2)cc1` (configuration not stated), the AC50 [1] is reported as 2.91 µM [rising, full curve].
For `COCCOC(=O)c1c(C)n(C)c2ccc(OC(=O)c3ccccc3F)cc12`, the AC50 [1] was 2.51 µM [rising, partial curve, poor fit].
For `Cc1ccc(C)c(C(=O)N(Cc2nc(-c3ccc(Cl)cc3)no2)C(C)C)c1`, the AC50 [1] was 0.013 µM [falling, full curve, poor fit].
With `O=C(Nc1cnn(Cc2ccc(Cl)cc2Cl)c1)c1noc2c1CCCC2` the AC50 [1] was 29.1 µM [falling, single point] and the AC50 [2] was 23.1 µM [rising, partial curve, poor fit].
In the case of `COc1ccc(C2SCC(=O)N2c2c(C)n(C)n(-c3ccccc3)c2=O)c(OC)c1` (configuration not stated), the AC50 [1] is reported as 3.98 µM [rising, full curve, poor fit].
In the case of `COc1ccc(NC(=O)c2ccco2)cc1NC(=O)c1cc2ccccc2o1`, the AC50 [1] is reported as 1.41 µM [rising, partial curve, poor fit].
With `CNC(=O)COC(=O)c1ccccc1C(=O)c1ccc(Cl)c([N+](=O)[O-])c1` the AC50 [1] was 5.62 µM [falling, full curve] and the AC50 [2] was 5.62 µM [rising, full curve].
In the case of `CCOC(=O)c1sc(NC(=O)CSc2n[nH]c(C)n2)nc1C`, the AC50 [1] is reported as 10 µM [falling, partial curve, poor fit].
With `COC(=O)c1cc(OC)c(OC)cc1NC(=O)c1ccco1` the AC50 [1] was 12.6 µM [falling, partial curve, poor fit].
In the case of `CC(C)n1c(N2CCN(C(=O)Nc3ccc(Cl)cc3)CC2)nc2ccccc21`, the AC50 [1] is reported as 1.26 µM [rising, full curve, poor fit].
With `CCn1nccc1C(=O)Nc1ccc(S(=O)(=O)NC23CC4CC(CC(C4)C2)C3)cc1` the AC50 [1] was 14.6 µM [falling, partial curve, poor fit].
With `CC(=O)c1ccc(Oc2ncnc3sccc23)c(CN2CCOCC2)c1` the AC50 [1] was 25.9 µM [rising, single point].
With `COc1ccc(NC(=O)c2noc3c2CCCCC3)cc1` the AC50 [1] was 35.5 µM [falling, single point].
In the case of `COc1ccc(OCC(=O)Nc2cccc3ncccc23)cc1`, the AC50 [1] is reported as 20.6 µM [falling, partial curve, poor fit].
For `Cc1ccc(N(C(=O)C2CCCC2)C2C=CS(=O)(=O)C2)cc1C` (configuration not stated), the AC50 [1] was 0.517 µM [falling, partial curve, poor fit].
For `CCCCc1c(CCC)c(=N)c2ccccc2n1C`, the AC50 [1] was 5.01 µM [rising, partial curve, poor fit].
In the case of `NC(=O)CSc1ncc(-c2ccccc2)[nH]1`, the AC50 [1] is reported as 14.1 µM [rising, single point].
For `COc1ccc(C(=O)NNC(=O)C(=O)Nc2ccc(C)cc2)cc1`, the AC50 [1] was 10 µM [falling, partial curve].
In the case of `Cc1ccccc1C(=O)N1CCC(C(=O)N(CC(C)C)c2c(N)n(Cc3ccccc3)c(=O)[nH]c2=O)CC1`, the AC50 [1] is reported as 0.146 µM [rising, full curve, poor fit].
In the case of `COc1cccc2sc(Nc3nnc(-c4ccc(F)cc4)o3)nc12`, the AC50 [1] is reported as 0.58 µM [falling, full curve].
In the case of `CC1(C)Cc2c(sc(NC(=O)C3CC(Cl)=CCC3C(=O)O)c2C#N)CO1` (configuration not stated), the AC50 [1] is reported as 35.5 µM [falling, single point].
For `O=c1c(Br)c(NCc2ccccc2)cnn1-c1ccc(F)cc1`, the AC50 [1] was 22.4 µM [falling, single point].
For `COc1cc(C(=O)NCCCN2CCCC2=O)cc(OC)c1OC`, the AC50 [1] was 0.82 µM [rising, partial curve, poor fit].
For `COc1cccc2cc(C(C)N(CCCN3CCOCC3)C(=S)Nc3ccc(C)cc3)oc12` (configuration not stated), the AC50 [1] was 3.55 µM [rising, partial curve, poor fit].
With `Nc1nc2n(n1)C(c1ccccc1)CC(c1ccc(F)cc1)N2` (configuration not stated) the AC50 [1] was 17.8 µM [rising, single point].
In the case of `O=C(N/N=C/c1cn(-c2ccccc2)nc1-c1ccc2c(c1)OCCO2)c1ccncc1`, the AC50 [1] is reported as 2.82 µM [rising, full curve, poor fit].
In the case of `Cc1cccc(OCC(=O)N=Nc2c(O)[nH]c3ccc([N+](=O)[O-])cc23)c1`, the AC50 [1] is reported as 0.224 µM [rising, full curve, poor fit].
For `COc1ccc(-c2cc(C(=O)Nc3ccc4c(c3)OCO4)no2)cc1`, the AC50 [1] was 0.708 µM [falling, full curve, poor fit].
For `COC(=O)c1ccc(CS(=O)(=O)c2ccc(C)cc2)cc1`, the AC50 [1] was 32.6 µM [rising, single point].
For `CCOC(=O)c1cc(-c2ccccc2)n(CC(=O)Nc2cccc(OC)c2)c1C`, the AC50 [1] was 29.1 µM [rising, single point].
With `CCCCCc1ccc(-c2ccc(OC)cc2)nc1` the AC50 [1] was 3.16 µM [falling, partial curve, poor fit].

From PubChem BioAssay AID493014 (National Center for Advancing Translational Sciences (NCATS), 2011)
